# Experimental data: PubChem BioAssay AID493246 (Drosophila RNAi Screening Center, 2011)
# Assay: 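Genome-wide search for dsRNAs that reduce cell number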 (primary screen)
# Cell system: Drosophila Kc and S2R+ cells
# Reagents: long dsRNA against Drosophila genes
# Read-out: 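Cell number per well after knock-down, printed as raw plate values; calls were based on per-plate z-scores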
# Scale: Kc cell number and S2R+ cell number: higher = more cells remaining
# Call rule: 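Counted as a hit if cell number falls by a z-score of at least 3 within its plate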
# The screen tested about 21,000 reagents; this is a random part of those that have a named target and a result. Over the whole deposit, 429 (2%) were called active. 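Values are raw and not normalised between plates; calls rest on per-plate z-scores that were not deposited.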 The numbers tell different reagents against one gene apart. Names joined by + are all predicted targets of the reagent. Reagent sequences are not shown. The record does not give: the amount of reagent, the time to read-out.
gene knocked down,dsRNA no.,"Kc cell number, rep 1","Kc cell number, rep 2","S2R+ cell number, rep 1","S2R+ cell number, rep 2",Call
CG34247,1,1.29e6,1.39e6,1.32e6,1.41e6,inactive
CG31910 + snoRNA:Me28S-G2743 (retired record),1,1.58e6,1.55e6,1.08e6,1.22e6,inactive
CG12857,1,1.47e6,1.52e6,1.19e6,1.29e6,inactive
red,1,1.48e6,1.55e6,7.06e5,7.81e5,active
fws,1,1.09e6,1.33e6,1.03e6,1.04e6,inactive
CG10700,1,1.50e6,1.69e6,1.37e6,2.90e5,inactive
CG4744,1,1.35e6,1.45e6,1.10e6,1.09e6,inactive
Mdr65,1,1.73e6,1.73e6,1.19e6,1.25e6,inactive
CG14285,1,1.45e6,1.47e6,1.11e6,1.19e6,inactive
Vav,1,1.59e6,1.59e6,1.12e6,1.30e6,inactive
CG8188,1,1.54e6,1.55e6,1.07e6,1.12e6,inactive
CheA86a,1,1.56e6,1.61e6,1.03e6,1.21e6,inactive
CG32537,1,1.63e6,1.69e6,1.17e6,1.27e6,inactive
Gpa2,1,1.42e6,1.45e6,1.03e6,1.14e6,inactive
CG4194,1,5.12e5,,8.09e5,,inactive
CG14423,1,1.51e6,1.53e6,1.05e6,1.19e6,inactive
Twdlalpha,1,1.55e6,1.50e6,1.11e6,1.24e6,inactive
CG2812,1,1.63e6,1.66e6,1.27e6,1.52e6,inactive
Ilp4,1,1.24e6,1.28e6,1.25e6,1.27e6,inactive
bbg,1,1.48e6,1.63e6,1.31e6,1.44e6,inactive
bbg,2,1.35e6,1.41e6,1.27e6,1.44e6,inactive
CG1582,1,5.41e5,,8.51e5,,inactive
CG7914,1,1.46e6,1.48e6,1.07e6,1.16e6,inactive
CG30440,1,1.53e6,1.69e6,9.58e5,1.14e6,inactive
CG30440,2,1.61e6,1.65e6,1.37e6,1.40e6,inactive
CG30440,3,1.57e6,1.72e6,1.33e6,1.35e6,inactive
CG6689,1,1.59e6,1.73e6,1.44e6,1.58e6,inactive
Ide,1,1.55e6,1.61e6,1.22e6,1.31e6,inactive
lilli,1,1.52e6,1.50e6,1.03e6,1.21e6,inactive
CG7747,1,1.29e6,1.33e6,1.19e6,1.19e6,inactive
Csl4,1,1.64e6,1.77e6,1.38e6,1.46e6,inactive
CG2861,1,1.57e6,1.58e6,1.11e6,1.21e6,inactive
CG42710,1,1.43e6,1.41e6,9.84e5,1.09e6,inactive
Ac78C,1,1.38e6,1.50e6,1.08e6,1.26e6,inactive
Ac78C,2,1.53e6,1.61e6,1.33e6,1.43e6,inactive
Ac78C,3,1.48e6,1.52e6,1.32e6,1.32e6,inactive
Dd,1,1.76e6,1.74e6,1.12e6,1.22e6,inactive
CG10274,1,1.33e6,1.38e6,1.15e6,1.06e6,inactive
ATPsynG,1,1.57e6,1.58e6,8.94e5,1.01e6,inactive
VhaAC45,1,8.63e5,1.02e6,8.31e5,9.36e5,inactive
